Laboratory results: patent publication US10976307B2, “Whole cell assays and methods” (Celcuity Inc., priority 2012, dated 2021)
Some of these results come from one statement about several compounds together.

Test system: Patient B4 HER2 overexpressing breast cancer cells
Experiment: CELx Pathway Shutdown test, impedance biosensor CReMS, EGF stimulation
Format: cell-based, human
Details: drug added two hours before EGF pathway stimulation, compared to stimulation with no drug

CS(=O)(=O)CCNCc1ccc(-c2ccc3ncnc(Nc4ccc(OCc5cccc(F)c5)c(Cl)c4)c3c2)o1 [lapatinib, Lapatinib]
decrease of cell index of the test cells after drug added: over 50%
